# Experimental data reported in PubChem BioAssay AID493014 (National Center for Advancing Translational Sciences (NCATS), 2011).
# This is one part of the list. Further columns of the screen follow, without active or inactive calls. Compounds called inactive in the main read-out are mostly missing here. Words in brackets tell the shape of the fitted curve; partial curves, single points and poor fits give uncertain potencies.
# Assay: qHTS Assay to Find Inhibitors of Chronic Active B-Cell Receptor Signaling
# Conditions: ABC-DLBCL IkBa-CBG/CBR reporter, luminescence ratio (green luciferase fused to IkBa over red control in TMD8 lymphoma cells), 4 h
# Procedure, shortened: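 TMD8 human ABC-DLBCL cells with doxycycline-inducible IκBα–green luciferase fusion and unfused red luciferase, in 0.5% FBS medium; compounds up to 46 uM, 4 h at 37C. Green/red luminescence ratio, filter-overlap corrected, fitted to concentration-response curves.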
# [1] = measured here: CBR red luminescence, cell number
# [2] = measured here: IkBa-CBG green luminescence
SMILES,AC50 [1],AC50 [2]
CCC(c1nnnn1CCc1ccccc1)N1CCN(C(=O)c2ccco2)CC1 (stereo not drawn),"35.5 µM [falling, single point]","35.5 µM [rising, partial curve, poor fit]"
Cc1cccc2sc(N(Cc3cccnc3)C(=O)Cc3ccccc3)nc12,"11.2 µM [falling, partial curve]","15.8 µM [rising, partial curve, poor fit]"
CC(C)C(C)NC(=O)COc1ccc(-c2ccccc2)cc1 (stereo not drawn),"32.6 µM [rising, single point]",
COc1cc(/C=C/C(=O)N2CCCC2)cc(OC)c1OC,,"23.1 µM [falling, partial curve, poor fit]"
O=C(Nc1cc(-c2nc3ccccc3s2)ccc1Cl)c1ccc2c(c1)OCO2,"12.6 µM [rising, partial curve, poor fit]",
CCCCNS(=O)(=O)c1ccc2nc(SCC(=O)Nc3sccc3C#N)[nH]c2c1,"7.08 µM [falling, partial curve, poor fit]",
CCN(CC)S(=O)(=O)c1cccc(C(=O)Nc2ccc(Cl)cn2)c1,"6.51 µM [falling, single point]",
Cc1ccc(C(=O)O)cc1NC(=S)NC(=O)c1ccc(COc2ccccc2)cc1,"22.4 µM [falling, single point]",
Nc1nc2ccc([N+](=O)[O-])c(N)c2s1,"10 µM [rising, partial curve]","11.2 µM [falling, partial curve, poor fit]"
N#Cc1ccccc1/C=N/Nc1nc(-c2ccccc2)c2cc(Cl)ccc2n1,"0.562 µM [falling, full curve, poor fit]",
CC(=O)Nc1cccc(C(=O)OCC(=O)NC(C)c2ccc(F)cc2)c1 (stereo not drawn),"10 µM [rising, partial curve, poor fit]",
Cc1ccc(Cn2cnc3ccccc32)cc1,"18.4 µM [rising, single point]",
O=C(c1cc(Cl)cc(Cl)c1)N1CCC(=O)N(C(COCc2ccccc2)Cc2ccccc2)CC1 (stereo not drawn),"29.1 µM [falling, single point]",
O=C(O)CC12CC3CC(C1)CC(n1ncc(NCc4ccco4)c(Cl)c1=O)(C3)C2,"15.8 µM [rising, single point]",
O=C(Nc1nc2cc3c(cc2s1)OCO3)c1ccc(N2C(=O)CCC2=O)cc1,"0.891 µM [falling, full curve]","0.501 µM [rising, full curve, poor fit]"
CCCc1ccc(OCc2ccc(C(=O)N3CCN(c4ccccn4)CC3)o2)c(OC)c1,"18.4 µM [falling, single point]",
CC(C)(C)c1ccc(OCC(=O)N/N=C/c2ccsc2)cc1,"13 µM [falling, partial curve, poor fit]",
O=C(NCc1ccccc1Cl)c1cnc2ccccc2n1,"35.5 µM [falling, single point]",
CC(C)(C)c1cc[n+](C2=C([O-])c3ccccc3C(=O)/C2=N\S(=O)(=O)c2ccccc2)cc1,"17.8 µM [falling, single point]",
COc1ccc(-c2csc(NC(=O)CCCc3nc4ccccc4c(=O)[nH]3)n2)cc1OC,"20.6 µM [falling, single point]",
CC(=O)Nc1ccc(OCC(O)Cn2nc(C)nc2C)cc1 (stereo not drawn),"6.51 µM [falling, single point]",

SMILES,AC50 [1],AC50 [2]
CCOC(=O)CC(=O)CSc1nc2ccccc2c(=O)n1CCc1ccccc1,"14.1 µM [falling, single point]","17.8 µM [rising, partial curve, poor fit]"
Cc1ccc(OCc2nnc(SCc3ccc(C#N)cc3)n2-c2ccc(C)cc2)cc1,,"6.51 µM [rising, partial curve, poor fit]"
CC(C)n1nc(C(=O)NC2CCCCCC2)c2ccccc2c1=O,"18.4 µM [falling, single point]",
Cc1cc(C)n(-c2ncnc3sc(C)c(C)c23)n1,"32.6 µM [rising, single point]",
C=C(C)Cn1c(CCNC(=O)C(C)(C)C)nc2ccccc21,"0.326 µM [rising, partial curve, poor fit]",
CCCn1c(NC(=O)c2ccc(Cl)c(S(=O)(=O)N3CCCC3)c2)nc2ccccc21,"14.1 µM [falling, single point]",
Cc1cc2cc(CNC(=O)Nc3cccc(Cl)c3)ccc2n1C,"29.1 µM [rising, single point]",
CC(=O)Nc1ccc(S(=O)(=O)N2CCN(c3ccccc3)CC2)cc1,"2.24 µM [rising, partial curve, poor fit]",
COc1ccc(N(C(=O)Cn2nnc3ccccc32)C(C(=O)NCc2ccco2)c2ccc(C)o2)cc1 (stereo not drawn),"22.4 µM [falling, single point]",
CSc1ccc(S(=O)(=O)Nc2ccc(OCC(=O)N3CCOCC3)cc2)cc1,"22.4 µM [falling, partial curve, poor fit]",
C/C(=N\NC(=O)c1cc2c(s1)CCC(C)C2)c1ccncc1 (stereo not drawn),"16.4 µM [rising, partial curve, poor fit]",
COc1ccc(S(=O)(=O)N2CCN(C(=O)COc3ccc4c(C)cc(=O)oc4c3)CC2)cc1,"3.55 µM [falling, single point]",
Cc1cc(C(=O)N2CCOCC2)ccc1[N+](=O)[O-],"1.78 µM [falling, full curve]",
Cc1ccc(Nc2nc3ccc(Cl)cc3n3cnnc23)cc1F,"1.58 µM [rising, full curve, poor fit]",
CCOc1ccc(CCNC(=O)c2[nH]c(C)c(C(C)=O)c2CC)cc1OCC,"20 µM [rising, partial curve, poor fit]",
CCOC(=O)[C@H]1[C@H]2COc3ccc(Br)cc3[C@@H]2N2C(=O)c3cc(F)c(F)cc3NC(=O)[C@@]12C,"23.1 µM [falling, single point]",
C=CCOc1cccc(CNc2cccc(C(=O)O)c2)c1,"35.5 µM [falling, single point]",
CCN(C(=O)CCN1C(=O)S/C(=C\c2ccccc2)C1=O)C1CCS(=O)(=O)C1 (stereo not drawn),"22.4 µM [falling, single point]",
O=S(=O)(Nc1cccc2cccnc12)c1ccc(S(=O)(=O)N2CCCC2)cc1,"3.66 µM [rising, full curve]","9.2 µM [falling, partial curve]"
COC(=O)c1ccc(CO/N=C/c2ccc(OC)cc2OC)cc1,"12.6 µM [falling, partial curve]",
CCOC(=O)c1c(NC(=O)COC)sc(C(C)=O)c1C,"1.64 µM [falling, partial curve, poor fit]",

# Two successive compounds from above:
SMILES,AC50 [1],AC50 [2]
CCOC(=O)[C@H]1[C@H]2COc3ccc(Br)cc3[C@@H]2N2C(=O)c3cc(F)c(F)cc3NC(=O)[C@@]12C,"23.1 µM [falling, single point]",
C=CCOc1cccc(CNc2cccc(C(=O)O)c2)c1,"35.5 µM [falling, single point]",

# Later entries

SMILES,AC50 [1],AC50 [2]
CN(C)c1ccnc(Nc2ccccc2)c1C#N,"11.2 µM [falling, partial curve]","14.1 µM [rising, single point]"
Cc1nn(C)cc1-c1csc(N)n1,"2.51 µM [rising, full curve, poor fit]",
CN1c2ccccc2C(O)=C(C(=S)Nc2ccc(Cl)cc2)S1(=O)=O,"29.1 µM [falling, single point]",
CCCCC[C@@H]1C=C(C(=O)O)[C@H](c2ccc(Cl)c(Cl)c2)N1S(=O)(=O)c1ccc(C)cc1,"29.1 µM [falling, single point]",
COc1cccc(C(=O)Nc2ccc(-n3nncc3-c3ccccc3)cc2)c1,"12.6 µM [falling, partial curve, poor fit]",
COc1ccc(/C=C2\Oc3cc(OCC(=O)N4CCC(C(=O)O)CC4)ccc3C2=O)c(OC)c1,"11.2 µM [falling, single point]",
Cc1ccc(SCC(=O)Nc2cccc(NC(=O)c3ccco3)c2)cc1,"1.12 µM [falling, full curve, poor fit]",
CC(C)(C)C(=O)NC(=S)Nc1sc2c(c1C#N)CCCCC2,"29.1 µM [rising, single point]",
O=C1/C(=C/c2cccc3ccccc23)CCCc2ccccc21,"3.26 µM [rising, full curve, poor fit]",
CCCOC(=O)c1c(NC(=O)CSc2nc(-c3ccco3)cc(C(F)(F)F)n2)sc(C(=O)OC)c1C,"5.17 µM [falling, partial curve, poor fit]",
Cc1nc2sc(-c3ccccc3)cc2c(=O)n1-n1cccc1,"1.12 µM [rising, full curve]",
COc1ccc(/C=N/Nc2nc3ccccc3s2)cc1O,"12.6 µM [falling, partial curve, poor fit]",
O=C1c2ccccc2C(=O)N1CCC(c1ccccc1)c1ccco1 (stereo not drawn),"13 µM [falling, partial curve, poor fit]",
Cc1ccccc1-c1cn(-c2ccccc2)c(=S)[nH]1,"6.31 µM [falling, full curve]",
O=C(Nc1ccc(OC(F)(F)F)cc1)c1cccc(-n2cnnn2)c1,"10.3 µM [rising, partial curve]",
Cc1ccc(NC(=O)[C@H](NC(=O)[C@@H]2Cc3ccccc3CN2)c2ccccc2)cc1,"35.5 µM [falling, single point]",
O=C(NC1CCCC1)C1CC(=O)N(c2ccc(F)cc2)C1 (stereo not drawn),"4.47 µM [falling, full curve, poor fit]",
Cc1ccc(N2CCCC2=O)cc1S(=O)(=O)N1CCOCC1,"35.5 µM [rising, single point]",
Cn1c(=S)c2[nH]c(SCCN3CCCC3)nc2n(C)c1=O,,"10 µM [falling, partial curve]"
